Results: patent publication US7067653B2, “Porphyrin Based neuton capture agents for cancer therapy” (The Regents of the University of California, priority 2000, dated 2006)

Tested on: 9L, U-373MG and B16 cells
Experiment: Concentration-dependent cellular uptake
Format: cell-based
Settings: cells exposed to 1, 5 and 10 μM for 24 hours
Description: The concentration-dependent uptake of compounds 4, 6, 10 and the corresponding Zn(II) complex of 10 was investigated in cells exposed to 1, 5, and 10 μM of the porphyrins for 24 hours. The concentration of intracellular-bound porphyrin was determined by chemical extraction of washed cell monolayers, followed by spectrophotometric and/or IMP-MS determinations. The uptake values for 9L and U-373MG cells were very similar and exceeded that of B16 cells.

Substance: meso-tetra[3-(1-methyl-nido-carboranyl)methylphenyl]porphyrin tetrapotassium salt [Compound 10]
- uptake relative to the corresponding Zn(II) complexes: approximately 4 times

Substance: meso-tetra[4-(1-methyl-nido-carboranyl)methylphenyl]porphyrin tetrapotassium salt [Compound 4]
- uptake relative to the corresponding Zn(II) complexes: approximately 4 times
